Laboratory results taken from PMC12040169 (PLOS Biology, 2025).
The other results are listed elsewhere or left out.

Tested on: T1, CTL2-GFP (C. trachomatis L2/434/Bu, GFP-expressing)
T1 construct: L2/434/Bu, GFP-expressing
Set-up: species or system HeLa; Intracellular C. trachomatis growth in HeLa cells, bulk GFP fluorescence relative to DMSO
Conditions: bulk GFP, single well; 28.5 h, 10 µM; inhibitor

SMILES	% of control remaining [%]
COc1ccc(NC(=O)c2csc(Nc3ccccc3)n2)cc1OC [CBK287840]	93.3968
Cc1nc(C2CCN(C(=O)CCC3CCCO3)CC2)c2sccn12 (stereo not drawn) [CBK282240]	114.933
CCC(C)(C)C1CCc2c(sc(NC(=O)CN3CCOCC3)c2C#N)C1 (stereo not drawn) [CBK270048]	155.399
CCn1c2cc(C)oc2c2cnn(CC(=O)N3CCCCC3)c(=O)c21 [CBK284220]	154.976
CCOc1ccccc1CCNS(=O)(=O)c1ccc(Cl)c(Cl)c1 [CBK043610]	99.8973
CC(=O)Nc1ccc(NC(=O)CC2(CC(=O)O)CCCC2)cc1 [CBK296931]	140.841
Cc1noc(C)c1NC(=O)c1ccc2ccccc2n1 [CBK200309]	94.4896
O=C1COc2ccccc2CCCCC2(CCCN(C(=O)CCN3CCCC3=O)C2)CN1 (stereo not drawn) [CBK291998]	144.609
CSCCC(=O)N1CCN(C(=O)c2ccco2)CC1 [CBK144468]	120.22
CCN(C(C)COC)S(=O)(=O)c1ccc(C(F)(F)F)nc1 (stereo not drawn) [CBK304042]	112.23
CC1CCCCN1CCCNC(=O)c1ccc(-c2nc(-c3ccc(C#N)cc3)cnc2N)cc1 (stereo not drawn) [CBK107139]	72.4689
FC(F)(F)c1cccc(CN2CCC(N3CCCCC3)CC2)c1 [CBK261855]	100
CCC(=O)Nc1ccc(-c2csc(N(C)C)n2)cc1 [CBK304294C]	80.0561
Cc1[nH]ncc1C(=O)N1CCn2cc(C(F)(F)F)nc2C1 [CBK282307]	138.001
Cc1nc(NCCN2CCCC(CO)C2)nc2c1CCCC2 (stereo not drawn) [CBK307430]	141.459
CC(C(=O)NCCN1CCOCC1)N1c2cccc3cccc(c23)S1(=O)=O (stereo not drawn) [CBK269911]	116.658
COC(=O)c1ccccc1NC(=O)c1c(C)c(-c2ccc(C)cc2)nc2ccccc12 [CBK263641]	100
Cc1ccc(C)c(OCCN(C)c2cc(C3CC(N)C3)nc(N)n2)c1 (stereo not drawn) [CBK307695]	56.5639
CN(C(=O)c1ccccc1C(=O)O)C1CC(C)(C)NC(C)(C)C1 [CBK287117]	102.876
COC(=O)c1ccccc1NC(=O)CSc1nnc(-c2sc(N)nc2C)o1 [CBK266250]	166.195
Cc1cccc(-c2ccc(CC3(C(N)=O)CCN(C(=O)CCc4ccccc4)CC3)cc2)c1 [CBK285796]	38.9162
O=C(C1CCCN1)N1CC2(CCCC2)c2c(F)cccc21 (stereo not drawn) [CBK304489]	143.847
N=C1NC(=O)C(CC(=O)Nc2ccc(SC(F)F)cc2)S1 (stereo not drawn) [CBK265648]	100
Cc1nn(-c2ccccc2)c2[nH]c(=O)c(CNC(C)(C)C)cc12 [CBK282921]	88.2377
COc1ccc(CNCCN2CCOCC2)c(OC)c1 [CBK278180C]	152.231
NC(=O)c1ccc(SCC(=O)O)c([N+](=O)[O-])c1 [CBK034310]	100

An excerpt of these results, in markdown.

| SMILES | % of control remaining [%] |
| --- | --- |
| Cc1ccc(C)c(OCCN(C)c2cc(C3CC(N)C3)nc(N)n2)c1 (stereo not drawn) [CBK307695] | 56.5639 |
| CN(C(=O)c1ccccc1C(=O)O)C1CC(C)(C)NC(C)(C)C1 [CBK287117] | 102.876 |
| COC(=O)c1ccccc1NC(=O)CSc1nnc(-c2sc(N)nc2C)o1 [CBK266250] | 166.195 |
| Cc1cccc(-c2ccc(CC3(C(N)=O)CCN(C(=O)CCc4ccccc4)CC3)cc2)c1 [CBK285796] | 38.9162 |

Following part.

SMILES	% of control remaining [%]
CCc1noc(C)c1C(=O)NCCN1CCCCC1C (stereo not drawn) [CBK282219]	121.453
O=C(O)C1=CC(c2ccc(O)cc2)n2ncnc2N1 (stereo not drawn) [CBK286545]	106.342
O=C(NCCC(c1ccccc1)c1ccco1)C1CCCN1 (stereo not drawn) [CBK282499]	128.449
O=C(COc1ccc(N2CC(C(=O)O)CC2=O)cc1)Nc1cccc(C(F)(F)F)c1 (stereo not drawn) [CBK268096]	145.797
C/C(CC(=O)Nc1ccccc1C(N)=O)=N\NC(=O)c1ccoc1C [CBK262957]	119.187
Cc1oc(NC(=O)CN2CCN(c3cccc(Cl)c3)CC2)c(C#N)c1C [CBK305906]	122.56
O=C(Cn1nnc2ccccc21)c1ccc2c(c1)CCN2S(=O)(=O)c1ccccc1 [CBK286464]	87.9861
Cc1cc(-c2cc(C)[nH]n2)[nH]n1 [CBK262079]	103.826
CCN1/C(=C/C(=C/c2sc3ccccc3[n+]2CCCS(=O)(=O)[O-])OC)Sc2ccccc21 [CBK278203]	100
C=CCn1c(N2CCC(C(=O)NC3CC3)CC2)nc2ccccc21 [CBK283924]	127.809
Cc1csc(C(Cc2cccs2)NC(=O)C2CCC(=O)N2)n1 (stereo not drawn) [CBK285056]	114.337
CCOC(=O)CN(Cc1ccccc1)Cc1cccc(OC)c1 [CBK126459]	73.939
O=C1CN(C(=O)c2cccc(Cl)c2)c2ccccc2N1 [CBK017844]	93.9217
Nn1c(SCC(=O)Nc2ccc3c(c2)oc2ccccc23)nnc1-c1ccc(Cl)cc1Cl [CBK265090]	100
CC1CC(C)CN(C(=O)c2ccccc2NC(=O)C2CC(=O)Nc3ccccc32)C1 (stereo not drawn) [CBK297760]	170.452
CN1CCN(Cc2nc3c([nH]2)c(=O)n(C)c(=O)n3C)CC1 [CBK269578]	63.0296
CN1CCN(CCCOc2ccccc2OCc2ccccc2)CC1 [CBK269630C]	139.364
CCS(=O)(=O)N1CCC(c2onc3c2CCCCC3)CC1 [CBK284497]	93.9154
O=C(CCC(=O)c1ccc(Cl)cc1)OCC(=O)c1cccc(I)c1 [CBK264760]	119.529
CCCSc1nnc(-c2ccccc2NC(=O)CC)c(O)n1 [CBK265081]	120.431
CCc1nnc(NS(=O)(=O)c2ccc(NC(=O)c3ccc(Cl)cc3Cl)cc2)s1 [CBK045493]	97.6974
CN1CCN(CCCCOc2ccc(Cc3ccccc3)cc2)CC1 [CBK269692C]	135.16
O=C(CSc1nnc(-c2ccncc2)n1-c1ccccc1)c1ccc(Br)cc1 [CBK266758]	141.178
C#CCNC(=O)[C@@H]1Cc2cn(Cc3cc(C)on3)c3cccc(c23)[C@H](CC(C)C)N1 [CBK289426]	116.51
Cn1ncc2c(C(=O)O)cc(-c3ccccc3)nc21 [CBK288024]	108.497
COc1ccc(S(=O)(=O)N(C)CC(=O)Nc2ccc(Br)cc2F)cc1Cl [CBK267916]	128.501

SMILES	% of control remaining [%]
O=C(CCS(=O)(=O)c1ccc(Br)cc1)OCC(=O)c1ccccc1 [CBK021886]	100.659
Cc1cc(OC(C)C(=O)NCc2ccccn2)ccc1Cl (stereo not drawn) [CBK269617]	118.1
C=CCn1c2cc(C)sc2c2cnn(CCC(C)=O)c(=O)c21 [CBK282868]	101.431
O=C(O)C(Cc1ccccc1)N1C(=O)/C(=C/c2ccc([N+](=O)[O-])cc2)SC1=S (stereo not drawn) [CBK263108]	100
CCc1nc2ccc(C(=O)NC3=NN(c4ccccc4)C(=O)C3)cn2c1N(C)Cc1cccs1 [CBK145557]	104.484
Cc1ccc2c(c1)-c1c(ssc1=S)C(C)(C)N2C(=O)COc1nc2ccccc2s1 [CBK262682]	106.354
Cc1n[nH]c(NNC(=O)COc2ccc(Cl)cc2)c1[N+](=O)[O-] [CBK261478]	109.799
O=C(Nc1ccc(S(=O)(=O)Nc2ncccn2)cc1)c1ccc(Cl)c([N+](=O)[O-])c1 [CBK263739]	109.759
CC(=O)Nc1ccc(-c2nc3ncccc3o2)cc1C [CBK288132]	118.125
CC(C)NC(=O)[C@H]1CN(C(=O)c2cc[nH]n2)C[C@@H]1c1ccnc(N2CCCC2)n1 [CBK285526]	121.75
COc1ccc(S(=O)(=O)N(C)CC(=O)Nc2ccccc2C(F)(F)F)cc1OC [CBK266159]	116.834
COc1ccccc1NC(=O)c1[nH]nc(O)c1Cc1c(Cl)cccc1Cl [CBK107846]	112.783
O=C(NCc1cccc(C(F)(F)F)c1)N1CCN(c2cc(C(F)(F)F)ccn2)CC1 [CBK156435]	150.967
O=C(NCc1cccnc1)C1CCC(Cn2c(=S)[nH]c3ccccc3c2=O)CC1 (stereo not drawn) [CBK266678]	118.496
O=C(CSc1nnc(Cc2ccccc2)o1)Nc1c(Cl)cc(Cl)cc1Cl [CBK266119]	134.003
CC1=CCC(C(=O)O)C(C(=O)Nc2ccccc2NC(=O)c2ccc(C(F)(F)F)cc2)C1 (stereo not drawn) [CBK265794]	107.072
COCCOc1ccc(-c2noc([C@@H]3CCCN3)n2)cn1 [CBK288883]	140.915
Cc1ncccc1OC1(C(=O)NCc2cn3c(n2)SCC3)CCNCC1 [CBK307649]	133.484
COc1ccc(-c2csc(N3CCN(C)CC3)n2)cc1F [CBK305910]	95.8404
CSc1nc(Cl)c(-c2ccccc2)c(N(C)C)n1 [CBK023169]	108.135
O=CN1CCc2c([nH]c3ccccc23)C12CCN(CCCN1C(=O)C3CCCCC3C1=O)C2 (stereo not drawn) [CBK039592]	89.569
CN(Cc1ccc2ncccc2c1)C(=O)C1CN(S(=O)(=O)c2ccc(F)cc2)C1 [CBK285943]	121.271
CC(=O)c1cc(C(=O)Nc2cnn(Cc3ccc(F)cc3)c2)cs1 [CBK282528]	106.264
O=C1CCC(=O)N1CCn1c(=O)n(S(=O)(=O)c2ccc(-c3ccccc3)cc2)c2ccccc21 [CBK106494]	115.668
Cc1cc(C(=O)NC2CCCOC2)c2cccc(Cl)c2n1 (stereo not drawn) [CBK282459]	122.32
COc1ccc(C(CC(=O)c2ccc(C)cc2)Nc2ccc([N+](=O)[O-])cc2)cc1 (stereo not drawn) [CBK268187]	107.183

Shown bar-delimited: entries from further up.
SMILES | % of control remaining [%]
COc1ccc(S(=O)(=O)N(C)CC(=O)Nc2ccc(Br)cc2F)cc1Cl [CBK267916] | 128.501
O=C(CCS(=O)(=O)c1ccc(Br)cc1)OCC(=O)c1ccccc1 [CBK021886] | 100.659
